Experimental findings from PMC10567576 are described below.

Protein sequences, listed by entry. Tags and fused reporters are not part of them. Residues count along the entry.
UniProt P18084, residues 715-769: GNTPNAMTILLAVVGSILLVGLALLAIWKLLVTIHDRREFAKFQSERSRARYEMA

In this assay the target is GFP–ITGβ5(715–769) (human) (UniProt P18084). Description: co-IP; HEK293T cells co-transfected with the GFP- and RFP-tagged constructs; after 48 h cross-linked with 0.5 mM DSP in PBS for 30 min at RT, quenched in 50 mM Tris-HCl, lysed in 1x RIPA buffer for 1 h at 4 °C; GFP-Trap magnetic agarose overnight at 4 °C; four washes with RIPA; western blot. (Immunoblotting shows a protein as a band on a membrane.)

No constants are given. Whether binding was seen depends on the method and setting. In cells and extracts the contact can be indirect. Some entries that bind do so weakly or less than the wild type.

B1: FCHo2_µHD–RFP (domain or fragment, UniProt Q3UQN2 520-809)
chain: ANTPTVGVSRGPSPVSLGNQDTLPVAIALTESVNAYFKGADPTKCIVKITGDVTISFPSGIIKVFTSNPSPAVLCFRVKNISRLEQILPNSQLVFSDPSQCDSNTKDFWMNMQAVTIYLKKLSEQNPAASYYNVDVLKYQVSSNGIQSTPLNLATYWKCSASTTDLRVDYKYNPEAMVAPSVLSNIQVVVPVDGGVTNMQSLPPAIWNAEQMKAFWKLSGISEKSDSGGSGSLRAKFDLSEGPSKPTTLAVQFLSEGNTLSGVDIELVGTGYRLSLVKKRFATGRYLADC
As for B1, the binding entry is recorded as “binds”.

B2: FCHo2_ΔµHD–RFP (domain or fragment, UniProt Q3UQN2 1-525)
chain: MVMAHFVENFWGEKNNGFDVLYHNMKHGQISTKELADFVRERATIEEAYSRSMTKLAKSASNYSQLGTFAPMWDVFKTSTEKLANCHLDLVRKLQELIKEVQKYGEEQVKSHKKTKEEVAGTLEAVQAIQNITQALQKSKENYTAKCVEQERLKKEGATQREIEKAAVKSKKATDTYKLYVEKYALTKADFEQKMTETAQKFQDIEETHLIHIKEIIGSLSNAVKEIHLQIGQVHEEFINNMANTTIESLIQKFAESKGTGKERPGLIEFEECDPASAVEGIKPRKRKTFALPGIIKKEKDAESVECPDADSLNIPDVDEEGFSIKPEANQNDTKENHFYSSSDSDSEDEEPKRYRIEIKPAHPNNLHHTMASLDELKVSIGNITLSPAVSRHSPVQMNRNSSNEELTKSKPSSLPTEKGTNDLLAWDPLFGSSLESSSAPLTSSSSARPTTPLSLGTLVPPPRPASRPKLASGKLSGINEIPRPFSPPVTSNTSPPPTAPLARAESSSSISSSASLSAANTPTV
Turning to B2, the binding entry is listed as “no binding”.
